{"source": "PubChem BioAssay AID651640", "about": "(Broad Institute, 2012)", "note": "The campaign covered roughly 350,000 compounds. About 6,000 (1.7%) were called active. Inconclusive results, whose numbers are uncertain, are shown with a selection of clear calls. No stated cut-off is given here; in the data, active means CPE inhibition above about 20% (passing the limit was not always enough); inconclusive means no clear call, values can overlap the other calls; tested in BHK-21 cells."}
{"assay": "protection of cells from dengue 2 killing – plate reader, single concentration, primary screen (AID 651640);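 further: 0% = median of neutral control wells and 100% = median of positive control wells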", "settings": "DENV2-infected cells, cytopathic effect rescue, at 9.99 µM, active compounds read high"}
{"smiles": "CCCCN(C)C(=O)C1CCCN(S(=O)(=O)c2ccc3c(c2)oc(=O)n3C)C1", "note": "(stereo not drawn)", "CPE inhibition": "inconclusive: 26.9%"}
{"smiles": "Cc1cc(C(C)(C)C)oc1C(=O)OCC(=O)NC1CCCCC1", "CPE inhibition": "inconclusive: 36.9%"}
{"smiles": "COc1ccc(C#Cc2ccc([C@@H]3[C@@H](CO)N4CCCCN(S(=O)(=O)c5cn(C)cn5)C[C@H]34)cc2)cc1", "CPE inhibition": "active: 43.2%"}
{"smiles": "CO[C@@H]1CN(C)C(=O)c2ccc(NC(=O)C3CC3)cc2OC[C@@H](C)N(C(=O)CN2CCOCC2)C[C@@H]1C", "CPE inhibition": "inactive: 1.61%"}
{"smiles": "CCN(CC)C(=S)SC1CCCCN(C(=O)c2ccc(F)cc2)C1=O", "note": "(stereo not drawn)", "CPE inhibition": "inconclusive: 26%"}
{"smiles": "CCc1noc(C)c1C(=O)N1CCN(c2ccc([N+](=O)[O-])cc2)CC1", "CPE inhibition": "inactive: 2.04%"}
{"smiles": "COc1ccc(CN(C)C[C@@H]2Oc3ccc(NC(=O)Nc4ccc(C(F)(F)F)cc4)cc3C(=O)N([C@H](C)CO)C[C@@H]2C)cc1", "CPE inhibition": "active: 28.6%"}
{"smiles": "Cc1noc(C)c1NC(=O)N(C)C[C@@H]1Oc2ccc(NC(=O)NC(C)C)cc2C(=O)N([C@@H](C)CO)C[C@H]1C", "CPE inhibition": "active: 44.8%"}
{"smiles": "COc1ccc(S(=O)(=O)N(C)C[C@H]2OCCCC[C@@H](C)Oc3ccc(NS(=O)(=O)c4ccc(C)cc4)cc3C(=O)N([C@H](C)CO)C[C@@H]2C)cc1", "CPE inhibition": "inactive: -2.42%"}
{"smiles": "NC1=C(Cl)C(=O)c2ccc(S(N)(=O)=O)cc2C1=O", "CPE inhibition": "inactive: -1.04%"}
{"smiles": "COc1ccccc1CCN=C(N)NS(=O)(=O)c1ccc(F)cc1", "CPE inhibition": "active: 54.8%"}
{"smiles": "COc1ccc(Cc2c(-c3ccco3)nc3ccc(Br)cn23)c(C)c1", "CPE inhibition": "inconclusive: 61.3%"}
{"smiles": "COc1ccc(OC)c(S(=O)(=O)NCc2ccc(N3CCN(C)CC3)cc2)c1", "CPE inhibition": "inconclusive: 20.2%"}
{"smiles": "CCCC1NC(=O)c2cccnc2-n2c1nc1ccc(Cl)cc1c2=O", "note": "(stereo not drawn)", "CPE inhibition": "inconclusive: 25.9%"}
{"smiles": "C[C@@H]1CN([C@H](C)CO)C(=O)c2ccccc2-c2ccccc2CO[C@@H]1CN(C)C(=O)[C@H]1CCCN1C", "CPE inhibition": "active: 78.6%"}
{"smiles": "COc1ccc(-n2c(C)cc(C)c(C(C)=O)c2=S)cc1", "CPE inhibition": "inactive: -11.1%"}
{"smiles": "Cc1nnc(NC(=O)CSc2nnc(Cc3cccn3C)n2C)s1", "CPE inhibition": "inconclusive: 34%"}
{"smiles": "O=C(CCl)Nc1ccc(S(=O)(=O)NC2=NCCCCC2)cc1", "CPE inhibition": "active: 59.8%"}
{"smiles": "CCCCC(=O)Nc1ccc(N2CCN(C(=O)c3ccco3)CC2)cc1", "CPE inhibition": "inconclusive: 24.9%"}
{"smiles": "COc1ccc(CNC(=O)N(C)C[C@@H]2OCc3ccccc3-c3ccccc3C(=O)N([C@@H](C)CO)C[C@H]2C)cc1", "CPE inhibition": "inactive: -1.97%"}
{"smiles": "O=C(NC1CCC1)C1CCC(=O)N(Cc2cccc(F)c2)C1", "note": "(stereo not drawn)", "CPE inhibition": "inconclusive: 20.1%"}
{"smiles": "C=CCC(=O)N1CCC(n2nccc2NC(=O)CCOc2ccccc2)CC1", "CPE inhibition": "inconclusive: 55.8%"}
{"smiles": "COc1ccc(CCN2C(=O)c3ccccc3C2c2nnnn2C(C)C)cc1OC", "note": "(stereo not drawn)", "CPE inhibition": "inconclusive: 25.8%"}
{"smiles": "C[C@@H]1CC[C@]2(O[C@H](CCO)C[C@H](O)[C@H]2O)O1", "CPE inhibition": "active: 39.2%"}
{"smiles": "CC1(C(=O)NS(=O)(=O)c2ccc(Cl)cc2)CCN1C(=O)C/C=C/c1ccccc1", "note": "(stereo not drawn)", "CPE inhibition": "inconclusive: 35.1%"}
{"smiles": "O=C(C[C@@H]1C[C@H]2c3cc(NC(=O)Nc4ccccc4F)ccc3O[C@H]2[C@H](CO)O1)NCC1CC1", "CPE inhibition": "active: 27.4%"}
{"smiles": "O=C(CSC1=NS(=O)(=O)c2ccccc2N1)Nc1ccc(F)cc1", "CPE inhibition": "inactive: 13.4%"}
{"smiles": "COc1ccccc1Cc1c(-c2ccccc2)nc2ccc(Br)cn12", "CPE inhibition": "inconclusive: 23.8%"}
{"smiles": "CCOC(=O)N1CCN(C(=O)c2cc(COc3ccc4ncccc4c3)on2)CC1", "CPE inhibition": "inactive: -6.7%"}
{"smiles": "CC(=O)N1Cc2cc(C(=O)NCC(F)(F)F)nc(-c3cccc(-c4cccnc4)c3)c2[C@@H]1CCO", "CPE inhibition": "inconclusive: 26.1%"}
{"smiles": "O=C(/C=C/c1ccco1)Nc1nc(-c2ccccc2)cs1", "CPE inhibition": "inactive: -9.55%"}
{"smiles": "CN(CC(=O)NCc1ccco1)C(=O)C1CC(=O)N(c2ccc3c(c2)OCCO3)C1", "note": "(stereo not drawn)", "CPE inhibition": "inconclusive: 54.7%"}
{"smiles": "COc1ccccc1N(CC(=O)Nc1ccccc1C(F)(F)F)S(=O)(=O)c1cccs1", "CPE inhibition": "inconclusive: 50%"}
{"smiles": "O=C(NCc1cccc(Cl)c1)c1ccncc1", "CPE inhibition": "inconclusive: 53.3%"}
{"smiles": "COc1cccc(S(=O)(=O)N2C[C@@H](O)COC[C@H]3O[C@@H](CC(=O)Nc4ccccc4)CC[C@@H]32)c1", "CPE inhibition": "inactive: 6.04%"}
{"smiles": "COc1ccc(OC)c(/C(C)=N\\NC(=O)c2cc3cc(Cl)ccc3n2C)c1", "CPE inhibition": "active: 69.2%"}
{"smiles": "C[C@H]1CN([C@@H](C)CO)S(=O)(=O)c2ccc(C3=CCCC3)cc2O[C@@H]1CN(C)Cc1cccnc1", "CPE inhibition": "active: 30.4%"}
{"smiles": "C=CCNc1nc2c(c(=O)[nH]c(=O)n2C)n1Cc1cccc(C)c1", "CPE inhibition": "inconclusive: 28.6%"}
{"smiles": "N#CC1(NC(=O)COc2ccc(C(N)=O)cc2)CCCC1", "CPE inhibition": "inconclusive: 22%"}
{"smiles": "O=C(Nc1cc(F)ccc1F)N1C[C@H]2[C@@H](c3ccccc31)[C@H](CO)N2C(=O)c1ccccc1", "CPE inhibition": "inconclusive: 34.2%"}
{"smiles": "C[C@@H]1CN([C@@H](C)CO)C(=O)c2cccc(NS(=O)(=O)c3ccc(F)cc3)c2O[C@@H]1CN(C)C", "CPE inhibition": "inactive: -1.24%"}
{"smiles": "Cc1nc2cc(NS(=O)(=O)c3cccc(F)c3)ccc2s1", "CPE inhibition": "inactive: 7.62%"}
{"smiles": "CC(C)NC(=O)Nc1cccc2c1O[C@@H](CN(C)CC1CCCCC1)[C@H](C)CN([C@@H](C)CO)C2=O", "CPE inhibition": "inconclusive: 25.5%"}
{"smiles": "C[C@H]1CN([C@@H](C)CO)C(=O)c2cc(NC(=O)CCN3CCOCC3)ccc2O[C@@H]1CN(C)Cc1ccc(Cl)c(Cl)c1", "CPE inhibition": "inconclusive: 31%"}
{"smiles": "O=C(O)c1ccccc1/C=N/Nc1ccc(S(=O)(=O)Nc2ccc(Cl)cc2)cc1[N+](=O)[O-]", "CPE inhibition": "inconclusive: 41.8%"}
{"smiles": "Cc1ccc(C(=O)NC(=S)c2c(C)cc3ccccn23)cc1", "CPE inhibition": "active: 84.8%"}
{"smiles": "O=C(C[C@@H]1CC[C@H]2[C@@H](COC[C@H](O)CN2C(=O)c2ccccc2F)O1)NCc1ccc(Cl)cc1", "CPE inhibition": "inconclusive: 24.2%"}
{"smiles": "CC(C)CC(=O)Nc1c2c(nn1-c1ccc(F)cc1)CSC2", "CPE inhibition": "inconclusive: 50.2%"}
{"smiles": "C[C@@H]1CN([C@H](C)CO)C(=O)c2cccc(NS(=O)(=O)c3ccccc3)c2O[C@@H]1CN(C)S(C)(=O)=O", "CPE inhibition": "inactive: 4.33%"}
{"smiles": "COc1ccc(C(NC(=O)c2cc(OC)ccc2OC)c2ccccc2)cc1", "note": "(stereo not drawn)", "CPE inhibition": "inactive: -6.69%"}
{"smiles": "CC(=O)c1sc(NC(=O)c2oc3ccc(F)cc3c2C)nc1C", "CPE inhibition": "active: 21.4%"}
{"smiles": "O=S(=O)(N[C@H]1CC[C@H](CCn2cc(-c3cccnc3)nn2)O[C@@H]1CO)c1ccccc1", "CPE inhibition": "active: 28.8%"}
{"smiles": "C[C@@H]1CN([C@@H](C)CO)C(=O)c2cc(C#CCC3CCCC3)cnc2O[C@H]1CN(C)C(=O)c1cnccn1", "CPE inhibition": "inconclusive: 20.7%"}
{"smiles": "C[C@@H]1CCCCO[C@H](CN(C)C(=O)Nc2ccc(C(F)(F)F)cc2)[C@H](C)CN([C@@H](C)CO)C(=O)c2cc(NC(=O)c3ccncc3)ccc2O1", "CPE inhibition": "active: 21.9%"}
{"smiles": "N#CC(=Nc1cccc(F)c1)C1=C(O)c2ccccc2C1=O", "CPE inhibition": "active: 31.8%"}
{"smiles": "CC1=C(Cl)C2=NS(=O)(=O)CCN2C=C1Cl", "CPE inhibition": "inactive: -4.49%"}
{"smiles": "C[C@H](CO)N1C[C@H](C)[C@@H](CN(C)C(=O)Nc2ccc(C(F)(F)F)cc2)Oc2c(NC(=O)c3cnccn3)cccc2C1=O", "CPE inhibition": "inconclusive: 23.8%"}
{"smiles": "C[C@@H]1CN([C@H](C)CO)C(=O)c2cccc(NC(=O)C3CCCCC3)c2O[C@H]1CN(C)S(=O)(=O)c1ccccc1", "CPE inhibition": "inactive: -5.22%"}
{"smiles": "C[C@H](CO)N1C[C@H](C)[C@@H](CN(C)C(=O)c2ccccc2)Oc2ncc(C3=CCCCC3)cc2C1=O", "CPE inhibition": "inactive: -8.84%"}
{"smiles": "O=C(C[C@H]1C[C@@H]2c3cc(NC(=O)Nc4ccc(C(F)(F)F)cc4)ccc3O[C@@H]2[C@@H](CO)O1)NCc1ccc2c(c1)OCO2", "CPE inhibition": "inactive: -2.6%"}
{"smiles": "Cc1cc(C)c(NC(=O)CN2C(=O)NC3(CCc4ccccc43)C2=O)c(Cl)c1", "note": "(stereo not drawn)", "CPE inhibition": "inconclusive: 28.2%"}
{"smiles": "C[C@@H]1CCCCO[C@H](CN(C)C(=O)NC2CCCCC2)[C@H](C)CN([C@H](C)CO)C(=O)c2cc(NS(=O)(=O)c3cccs3)ccc2O1", "CPE inhibition": "inactive: -1.12%"}
{"smiles": "C[C@H]1CN([C@@H](C)CO)C(=O)c2cccc(NC(=O)Nc3ccc4c(c3)OCO4)c2O[C@@H]1CN(C)Cc1ccc(Oc2ccccc2)cc1", "CPE inhibition": "inactive: 3.16%"}
{"smiles": "O=C(Oc1ccc(C(=S)N2CCOCC2)cc1)c1ccc([N+](=O)[O-])cc1[N+](=O)[O-]", "CPE inhibition": "inactive: -1.63%"}
{"smiles": "Cc1cccc(NC(=O)CN2CCN(C(=O)c3cc(C4CC4)nn3-c3ccccc3)CC2)c1C", "CPE inhibition": "active: 61.7%"}
{"smiles": "Cc1ccccc1CSc1ncc(C#N)c(N)n1", "CPE inhibition": "inconclusive: 25.9%"}
{"smiles": "CCCN(C)C[C@@H]1OCCCC[C@@H](C)Oc2ccc(NC(=O)Nc3ccc(OC)cc3)cc2C(=O)N([C@H](C)CO)C[C@@H]1C", "CPE inhibition": "inconclusive: 31.1%"}
{"smiles": "CCOc1ccc(S(=O)(=O)N2CCC(C(=O)N3CCN(c4ccccc4F)CC3)CC2)cc1C", "CPE inhibition": "inconclusive: 22.5%"}
{"smiles": "CC(C)OC(=O)N(C)C[C@@H]1OCc2cnnn2CCCC(=O)N([C@H](C)CO)C[C@@H]1C", "CPE inhibition": "inconclusive: 73.1%"}
{"smiles": "CC1(C(=O)NS(=O)(=O)c2ccccc2Cl)CCN1C(=O)COc1ccc(Cl)cc1", "note": "(stereo not drawn)", "CPE inhibition": "inconclusive: 24.4%"}
{"smiles": "CN(Cc1ccc(Cl)cc1Cl)C(=O)CNC(=O)c1ccc2c(c1)OCO2", "CPE inhibition": "inactive: 0.143%"}
{"smiles": "C[C@@H]1CN([C@@H](C)CO)C(=O)Cc2cc(NC(=O)Cc3ccccc3)ccc2O[C@@H]1CN(C)Cc1ccc(C(=O)Nc2ccccc2N)cc1", "CPE inhibition": "inactive: -5.59%"}
{"smiles": "O=C(C[C@H]1CC[C@@H](NC(=O)Nc2cc(F)ccc2F)[C@@H](CO)O1)Nc1ccccc1", "CPE inhibition": "inactive: 5.75%"}
